This is one part of the list.
How the values were obtained:
Test in all cases: log2 fold change, soluble protein after heating vs DMSO (PISA); higher = thermal stabilisation; K562 cells, 10 uM, 30 min; active = over 0.2 and 3.5 SD of the protein, either way, in both replicates (recomputed)
[1] = compound: C1=CC=C(C=C1)[C@H](COC2=CC3=C(C=C2)NC(=O)N3)NC(=O)C4=CC=CN(C4=O)CC5=CC(=C(C=C5)F)F
In short: (§1)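 Quantification of soluble protein used TMTpro 16plex LC-MS/MS, with channel sums equalised. Samples were the supernatant after 21,000xg for 90 min of pooled aliquots from K562 cells (2×10^6 cells/mL) treated with 10 μM compound for 30 min, heated for 3 min over 48°C-58°C, and extracted in PBS with 0.5% NP-40 at 4°C. Values, from duplicates, describe thermal stability against control samples on a log2 fold-change scale.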

Amino acid sequences for entries named in this document (tags omitted). A change or cut given only in a name is not applied to a line headed by its entry.
UniProt P07384: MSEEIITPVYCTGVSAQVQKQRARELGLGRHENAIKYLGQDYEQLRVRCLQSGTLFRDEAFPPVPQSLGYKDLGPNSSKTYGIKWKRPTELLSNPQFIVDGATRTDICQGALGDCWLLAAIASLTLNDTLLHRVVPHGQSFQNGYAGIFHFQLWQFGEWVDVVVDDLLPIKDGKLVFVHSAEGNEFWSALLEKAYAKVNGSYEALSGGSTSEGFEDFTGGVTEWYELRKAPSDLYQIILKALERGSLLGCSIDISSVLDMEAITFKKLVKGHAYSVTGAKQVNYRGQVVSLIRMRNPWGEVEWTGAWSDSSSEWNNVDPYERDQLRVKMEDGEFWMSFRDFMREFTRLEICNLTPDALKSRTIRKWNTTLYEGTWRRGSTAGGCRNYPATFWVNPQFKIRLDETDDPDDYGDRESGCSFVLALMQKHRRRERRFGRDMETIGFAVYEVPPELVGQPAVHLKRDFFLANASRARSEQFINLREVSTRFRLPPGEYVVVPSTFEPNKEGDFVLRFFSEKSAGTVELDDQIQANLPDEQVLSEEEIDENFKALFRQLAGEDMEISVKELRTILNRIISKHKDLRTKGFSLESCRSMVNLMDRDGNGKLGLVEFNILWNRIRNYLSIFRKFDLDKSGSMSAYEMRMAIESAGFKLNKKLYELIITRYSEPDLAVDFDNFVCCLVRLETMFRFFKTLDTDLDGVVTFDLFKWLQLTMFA
UniProt P35613: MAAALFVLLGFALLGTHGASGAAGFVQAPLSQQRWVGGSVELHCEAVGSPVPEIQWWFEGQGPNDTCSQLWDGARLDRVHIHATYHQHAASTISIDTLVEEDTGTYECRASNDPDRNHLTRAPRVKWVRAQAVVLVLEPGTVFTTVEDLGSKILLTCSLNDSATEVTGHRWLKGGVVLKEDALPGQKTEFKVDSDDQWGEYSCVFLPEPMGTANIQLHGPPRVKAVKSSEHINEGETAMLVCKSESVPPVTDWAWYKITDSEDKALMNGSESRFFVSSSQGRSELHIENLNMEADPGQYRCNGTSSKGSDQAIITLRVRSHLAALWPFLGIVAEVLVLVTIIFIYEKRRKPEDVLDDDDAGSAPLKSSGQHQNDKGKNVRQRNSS
UniProt Q9Y2V0: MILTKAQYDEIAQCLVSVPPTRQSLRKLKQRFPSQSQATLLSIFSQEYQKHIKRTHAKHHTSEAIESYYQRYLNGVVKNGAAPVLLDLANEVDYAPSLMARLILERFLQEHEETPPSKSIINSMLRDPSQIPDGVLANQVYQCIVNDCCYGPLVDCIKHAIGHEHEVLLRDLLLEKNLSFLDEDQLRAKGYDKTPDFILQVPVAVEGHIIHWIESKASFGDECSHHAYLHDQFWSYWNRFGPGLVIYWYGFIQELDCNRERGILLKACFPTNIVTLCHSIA
UniProt Q96MD7: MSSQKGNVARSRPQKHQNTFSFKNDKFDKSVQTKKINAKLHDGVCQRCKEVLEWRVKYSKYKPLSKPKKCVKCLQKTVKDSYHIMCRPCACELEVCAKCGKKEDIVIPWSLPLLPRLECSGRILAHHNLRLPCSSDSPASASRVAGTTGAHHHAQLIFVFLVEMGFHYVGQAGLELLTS
UniProt Q6P5X5: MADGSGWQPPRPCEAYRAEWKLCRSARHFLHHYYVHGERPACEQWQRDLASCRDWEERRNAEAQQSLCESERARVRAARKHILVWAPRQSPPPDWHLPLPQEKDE
UniProt P27482, whole entry, looked up: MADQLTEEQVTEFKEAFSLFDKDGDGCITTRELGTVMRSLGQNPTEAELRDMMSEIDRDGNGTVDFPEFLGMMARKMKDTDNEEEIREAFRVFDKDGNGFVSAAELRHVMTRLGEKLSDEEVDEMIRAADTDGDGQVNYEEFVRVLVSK
UniProt Q9BRJ6: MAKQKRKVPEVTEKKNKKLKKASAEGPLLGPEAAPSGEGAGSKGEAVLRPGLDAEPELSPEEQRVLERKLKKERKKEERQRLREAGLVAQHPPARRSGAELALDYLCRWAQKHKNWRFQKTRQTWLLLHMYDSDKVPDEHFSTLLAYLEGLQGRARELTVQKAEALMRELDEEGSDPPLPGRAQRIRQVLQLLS
UniProt Q86VG3: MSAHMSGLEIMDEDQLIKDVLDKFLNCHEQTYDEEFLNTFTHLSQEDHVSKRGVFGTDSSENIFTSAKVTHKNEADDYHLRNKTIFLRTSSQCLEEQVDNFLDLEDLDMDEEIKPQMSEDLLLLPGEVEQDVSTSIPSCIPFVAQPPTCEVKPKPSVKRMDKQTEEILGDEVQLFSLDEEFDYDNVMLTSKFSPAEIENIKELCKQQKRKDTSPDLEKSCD
UniProt Q9UPA5: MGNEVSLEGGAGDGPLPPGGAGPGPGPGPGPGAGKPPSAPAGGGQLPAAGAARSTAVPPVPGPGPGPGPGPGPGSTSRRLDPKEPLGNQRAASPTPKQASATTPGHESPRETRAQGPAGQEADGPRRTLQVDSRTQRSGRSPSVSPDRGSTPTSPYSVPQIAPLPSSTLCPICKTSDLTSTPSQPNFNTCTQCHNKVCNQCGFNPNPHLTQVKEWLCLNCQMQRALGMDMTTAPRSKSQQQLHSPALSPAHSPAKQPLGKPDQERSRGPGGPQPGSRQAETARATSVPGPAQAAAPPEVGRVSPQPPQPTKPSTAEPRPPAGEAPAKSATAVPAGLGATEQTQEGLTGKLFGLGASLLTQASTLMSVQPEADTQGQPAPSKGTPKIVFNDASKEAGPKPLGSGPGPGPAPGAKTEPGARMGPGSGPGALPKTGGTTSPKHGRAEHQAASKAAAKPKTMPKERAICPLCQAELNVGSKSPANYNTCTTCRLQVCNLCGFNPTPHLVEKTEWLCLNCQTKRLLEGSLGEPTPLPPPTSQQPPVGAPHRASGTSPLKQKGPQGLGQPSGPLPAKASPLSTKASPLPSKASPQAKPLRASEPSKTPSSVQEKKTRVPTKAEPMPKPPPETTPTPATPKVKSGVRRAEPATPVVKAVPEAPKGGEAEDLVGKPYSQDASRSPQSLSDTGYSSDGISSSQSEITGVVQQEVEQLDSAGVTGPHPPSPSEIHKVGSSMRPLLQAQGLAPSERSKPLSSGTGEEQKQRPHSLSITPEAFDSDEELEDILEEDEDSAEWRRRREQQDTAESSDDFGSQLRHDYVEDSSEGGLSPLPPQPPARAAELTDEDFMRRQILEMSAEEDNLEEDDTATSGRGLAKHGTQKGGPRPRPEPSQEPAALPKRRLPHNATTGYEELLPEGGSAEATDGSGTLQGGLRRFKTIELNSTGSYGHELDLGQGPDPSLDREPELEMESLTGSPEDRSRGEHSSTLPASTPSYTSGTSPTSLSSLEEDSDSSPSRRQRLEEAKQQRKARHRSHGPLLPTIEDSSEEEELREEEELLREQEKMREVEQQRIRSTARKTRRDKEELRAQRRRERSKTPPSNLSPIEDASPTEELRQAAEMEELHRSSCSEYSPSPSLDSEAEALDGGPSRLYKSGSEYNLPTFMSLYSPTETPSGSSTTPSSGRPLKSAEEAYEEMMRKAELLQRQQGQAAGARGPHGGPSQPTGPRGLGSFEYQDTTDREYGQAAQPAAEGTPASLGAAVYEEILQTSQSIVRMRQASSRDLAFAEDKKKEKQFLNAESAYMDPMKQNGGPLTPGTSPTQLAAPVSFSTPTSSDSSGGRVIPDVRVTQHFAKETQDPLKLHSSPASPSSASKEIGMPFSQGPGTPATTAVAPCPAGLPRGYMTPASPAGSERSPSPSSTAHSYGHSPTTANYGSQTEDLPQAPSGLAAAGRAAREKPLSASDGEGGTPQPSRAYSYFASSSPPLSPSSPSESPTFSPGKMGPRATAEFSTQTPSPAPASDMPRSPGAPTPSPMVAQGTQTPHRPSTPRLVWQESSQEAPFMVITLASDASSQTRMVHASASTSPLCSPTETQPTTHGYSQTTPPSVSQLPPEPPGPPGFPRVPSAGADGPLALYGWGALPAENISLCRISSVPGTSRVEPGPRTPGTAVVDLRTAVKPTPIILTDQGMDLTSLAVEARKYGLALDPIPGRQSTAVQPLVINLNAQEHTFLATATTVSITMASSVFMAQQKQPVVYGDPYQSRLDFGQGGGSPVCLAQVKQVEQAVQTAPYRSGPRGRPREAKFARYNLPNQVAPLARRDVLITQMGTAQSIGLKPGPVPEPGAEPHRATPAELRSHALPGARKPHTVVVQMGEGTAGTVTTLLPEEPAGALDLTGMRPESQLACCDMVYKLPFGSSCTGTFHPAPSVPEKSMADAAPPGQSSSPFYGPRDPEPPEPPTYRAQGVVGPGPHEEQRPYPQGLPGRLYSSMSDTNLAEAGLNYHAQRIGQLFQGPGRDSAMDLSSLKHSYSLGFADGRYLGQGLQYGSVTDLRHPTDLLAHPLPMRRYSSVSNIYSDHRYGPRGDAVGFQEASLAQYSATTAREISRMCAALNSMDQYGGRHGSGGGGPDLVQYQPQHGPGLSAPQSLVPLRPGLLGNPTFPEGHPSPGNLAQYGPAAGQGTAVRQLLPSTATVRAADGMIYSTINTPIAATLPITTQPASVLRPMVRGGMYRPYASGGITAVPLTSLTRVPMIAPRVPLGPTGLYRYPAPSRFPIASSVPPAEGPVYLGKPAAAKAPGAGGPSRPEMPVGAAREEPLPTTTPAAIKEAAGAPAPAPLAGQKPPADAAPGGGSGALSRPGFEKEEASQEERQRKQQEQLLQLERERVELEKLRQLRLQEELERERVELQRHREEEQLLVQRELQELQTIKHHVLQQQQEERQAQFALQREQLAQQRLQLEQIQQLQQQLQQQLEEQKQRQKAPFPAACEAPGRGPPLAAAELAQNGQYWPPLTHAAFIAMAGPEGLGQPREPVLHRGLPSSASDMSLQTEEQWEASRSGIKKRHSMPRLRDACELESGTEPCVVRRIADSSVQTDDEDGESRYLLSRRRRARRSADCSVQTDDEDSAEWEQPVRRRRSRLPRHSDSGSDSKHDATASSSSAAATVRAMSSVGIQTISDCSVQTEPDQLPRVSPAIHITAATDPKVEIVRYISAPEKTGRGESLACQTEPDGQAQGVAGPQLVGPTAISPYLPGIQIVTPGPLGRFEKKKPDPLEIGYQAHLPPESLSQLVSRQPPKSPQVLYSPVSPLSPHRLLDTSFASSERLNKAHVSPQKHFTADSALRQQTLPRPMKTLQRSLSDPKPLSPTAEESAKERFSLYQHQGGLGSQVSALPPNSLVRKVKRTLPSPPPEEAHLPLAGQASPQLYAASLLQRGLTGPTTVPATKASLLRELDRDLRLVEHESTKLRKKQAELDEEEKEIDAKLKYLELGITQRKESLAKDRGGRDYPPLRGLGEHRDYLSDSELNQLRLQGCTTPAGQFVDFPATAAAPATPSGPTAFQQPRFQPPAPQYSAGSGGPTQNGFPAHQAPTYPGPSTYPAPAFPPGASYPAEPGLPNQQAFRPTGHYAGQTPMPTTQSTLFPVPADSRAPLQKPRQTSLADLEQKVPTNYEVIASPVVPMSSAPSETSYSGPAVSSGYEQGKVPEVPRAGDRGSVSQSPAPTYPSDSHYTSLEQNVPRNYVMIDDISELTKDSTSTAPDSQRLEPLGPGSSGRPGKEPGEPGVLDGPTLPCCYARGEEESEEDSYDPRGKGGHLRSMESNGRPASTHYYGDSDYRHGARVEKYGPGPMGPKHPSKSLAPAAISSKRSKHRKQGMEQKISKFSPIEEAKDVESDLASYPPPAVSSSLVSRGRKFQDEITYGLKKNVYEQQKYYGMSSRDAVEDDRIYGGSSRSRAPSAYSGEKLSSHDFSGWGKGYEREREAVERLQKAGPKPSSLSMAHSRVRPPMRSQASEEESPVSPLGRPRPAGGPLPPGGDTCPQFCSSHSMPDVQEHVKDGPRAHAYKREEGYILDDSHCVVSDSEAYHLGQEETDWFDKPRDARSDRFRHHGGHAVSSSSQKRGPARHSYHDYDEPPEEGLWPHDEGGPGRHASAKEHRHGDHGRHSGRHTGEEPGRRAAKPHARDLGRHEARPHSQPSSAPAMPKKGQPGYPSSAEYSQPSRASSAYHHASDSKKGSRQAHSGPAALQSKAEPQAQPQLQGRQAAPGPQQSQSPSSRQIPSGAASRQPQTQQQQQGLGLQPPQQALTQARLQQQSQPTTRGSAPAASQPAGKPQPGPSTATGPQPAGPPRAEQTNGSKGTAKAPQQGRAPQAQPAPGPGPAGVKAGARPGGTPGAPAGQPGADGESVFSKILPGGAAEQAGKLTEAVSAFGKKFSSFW
UniProt Q9H3J6: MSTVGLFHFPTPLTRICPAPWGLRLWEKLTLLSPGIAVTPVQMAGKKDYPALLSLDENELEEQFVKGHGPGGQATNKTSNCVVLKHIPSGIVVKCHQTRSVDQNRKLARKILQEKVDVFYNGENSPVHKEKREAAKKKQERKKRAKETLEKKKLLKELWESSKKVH
UniProt Q6PH81: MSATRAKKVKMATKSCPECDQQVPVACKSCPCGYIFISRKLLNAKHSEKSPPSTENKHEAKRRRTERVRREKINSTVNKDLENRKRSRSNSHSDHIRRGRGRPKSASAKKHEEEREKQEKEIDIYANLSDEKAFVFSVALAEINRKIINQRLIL

[2] = compound: CC1=C(SC2=C1C(=N[C@H](C3=NN=C(N32)C)CC(=O)N)C4=CC=C(C=C4)Cl)C
In short: as §1

[3] = compound: CC1=C2C(=CC=C1)N=C(N(C2=O)C3=CC=CC=C3C)CN4C=NC5=C(N=CN=C54)N
In short: as §1

[4] = compound: Cc1sc2c(c1C)C(c1ccc(Cl)cc1)=N[C@@H](CC(=O)OC(C)(C)C)c1nnc(C)n1-2
In short: as §1

[5] = compound: c1ccc([C@@H]2C[C@H]2NC2CCNCC2)cc1
In short: as §1

Measured: log2 fold change

C20orf27 isoform 2 (UniProt Q9GZN8)
inactive: [1] 0.049 | [2] 0.054 | [3] 0.234 | [4] 0.017 | [5] 0.01

CAPN1 (UniProt P07384)
inactive: [1] -0.004 | [2] 0.004 | [3] -0.055 | [4] -0.037 | [5] 0.013

BSG (UniProt P35613)
inactive: [1] 0.007 | [2] 0.079 | [3] 0.048 | [4] -0.006 | [5] 0.051

C15orf41 (UniProt Q9Y2V0)
inactive: [2] 0.081 | [3] 0.014 | [4] -0.011 | [5] 0.149

C9orf85 isoform 1 (UniProt Q96MD7)
inactive: [2] 0.08 | [3] -0.066 | [4] 0.011 | [5] 0.299

C22orf39 (UniProt Q6P5X5)
inactive: [1] 0.126 | [2] 0.145 | [4] -0.06 | [5] -0.037

CALML3 (UniProt P27482)
inactive: [4] -0.481

Pulled one by one from the entries so far, 2 records:
CALML3 (UniProt P27482)
inactive: [4] -0.481

C9orf85 isoform 1 (UniProt Q96MD7)
inactive: [2] 0.08 | [3] -0.066 | [4] 0.011 | [5] 0.299

Next entries follow:

C7orf50 (UniProt Q9BRJ6)
inactive: [2] -0.224 | [3] -0.17 | [4] 0.022 | [5] 0.105

CAB39L (UniProt Q9H9S4)
inactive: [1] 0.088 | [3] 0.201 | [4] 0.285

C11orf74 (UniProt Q86VG3)
inactive: [3] 0.114 | [4] -0.05

BSN (UniProt Q9UPA5)
inactive: [2] -0.007 | [3] 0.022 | [5] 0.08

BTK isoform 2 (UniProt Q06187)
inactive: [2] -0.082 | [3] 0.05 | [4] 0.251 | [5] -0.051

C12orf65 (UniProt Q9H3J6)
inactive: [1] 0.05 | [2] -0.083 | [3] -0.321 | [5] 0.061

C16orf87 (UniProt Q6PH81)
inactive: [1] -0.037 | [3] 0.097

CA2 (UniProt P00918)
inactive: [1] -0.056 | [3] 0.052 | [4] -0.023

Source: the supplement of paper PMC10849652
